Taken from: PubChem BioAssay AID1259308 (NCATS, 2017)
Screen: 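Knock-downs that increase output of a recombinant reporter protein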 (primary screen). Cells: human HEK293 embryonic kidney cells stably expressing firefly luciferase (HEK-CMV-Luc2-Hygro). Reagent: single siRNA against human genes, 0.8 pmol siRNA per well. Duration: 72 h. Read-out: 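Luciferase light (ONE-Glo) measured on one replicate plate set and viability (CellTiter-Glo) on the other, scaled to a negative control siRNA, with robust z-scores and luciferase per cell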. Direction: total luciferase, z-score and total luciferase, % of control: higher = more reporter protein produced; luciferase per cell, z-score: higher = more reporter output per viable cell; viable cells, % of control: higher = more viable cells. Hit rule: 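Active when the median/MAD z-score for overall luciferase is greater than 3; a gene was taken forward for validation with new siRNAs if at least two of its three siRNAs passed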. Meaning of the calls: active = raised luciferase; inactive = no rise.
Shown is a random part of about 59,000 reagents tested. Of all reagents, about 1,510 (2.6%) were called active. 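Calls use total luciferase alone and ignore viability, so some active siRNAs may act by altering cell number.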 A number with no mark means an inactive call. Reagents against one gene are numbered here.

gene knocked down | reagent no. | total luciferase, z-score | total luciferase, % of control | luciferase per cell, z-score | viable cells, % of control
ALPL (GeneID 249) | 1 | -0.13 | 79.3 | 0.279 | 82.3
ALPL (GeneID 249) | 2 | -0.461 | 72.7 | 0.0555 | 80.1
ALPL (GeneID 249) | 3 | 0.701 | 95.8 | 0.318 | 98.5
MSRA (GeneID 4482) | 1 | -0.106 | 79.8 | -0.31 | 96.7
MSRA (GeneID 4482) | 2 | 0.181 | 85.5 | -0.557 | 111
MSRA (GeneID 4482) | 3 | 0.513 | 92.1 | 2.05 | 60
NIP7 (GeneID 51388) | 1 | -1.66 | 48.9 | -0.817 | 67.8
NIP7 (GeneID 51388) | 2 | 2.56 | 133 | 1.71 | 94.5
NIP7 (GeneID 51388) | 3 | -1.77 | 46.6 | -1.39 | 75.1
TEX30 (GeneID 93081) | 1 | 1.32 | 108 | 2.3 | 65.9
TEX30 (GeneID 93081) | 2 | 1.25 | 107 | 0.156 | 114
TEX30 (GeneID 93081) | 3 | 0.226 | 86.4 | 0.558 | 83.3
ZC3H4 (GeneID 23211) | 1 | 0.322 | 88.3 | 0.342 | 90.2
ZC3H4 (GeneID 23211) | 2 | 0.364 | 89.1 | 0.117 | 96.6
ZC3H4 (GeneID 23211) | 3 | 0.173 | 85.3 | 0.75 | 78.3
OR6T1 (GeneID 219874) | 1 | -0.414 | 73.6 | -0.973 | 106
OR6T1 (GeneID 219874) | 2 | -0.255 | 76.8 | -0.0684 | 87.4
OR6T1 (GeneID 219874) | 3 | -0.3 | 75.9 | -0.701 | 102
LOC107984399 (GeneID 107984399) | 1 | 1.12 | 104 | 1.11 | 86.9
LOC107984399 (GeneID 107984399) | 2 | 2.01 | 122 | 1.55 | 90.4
LOC107984399 (GeneID 107984399) | 3 | -0.213 | 77.7 | -0.483 | 98.5
TROAP (GeneID 10024) | 1 | -0.223 | 77.5 | 0.12 | 83.9
TROAP (GeneID 10024) | 2 | -0.762 | 66.7 | -0.181 | 78.2
TROAP (GeneID 10024) | 3 | -0.859 | 64.8 | -0.912 | 92.1
EEF1B2 (GeneID 1933) | 1 | 3.75 (active) | 156 | 2.72 | 85.5
EEF1B2 (GeneID 1933) | 2 | 3.48 (active) | 151 | 3.06 | 75.6
EEF1B2 (GeneID 1933) | 3 | 1.08 | 103 | 0.158 | 111
OR6K3 (GeneID 391114) | 1 | -0.0561 | 80.8 | 0.282 | 83.8
OR6K3 (GeneID 391114) | 2 | -1.08 | 60.4 | -0.829 | 84
OR6K3 (GeneID 391114) | 3 | -0.045 | 81 | 0.0936 | 88.3
SNX6 (GeneID 58533) | 1 | -0.672 | 68.5 | -0.0699 | 78
SNX6 (GeneID 58533) | 2 | -0.463 | 72.7 | -0.0914 | 83.2
SNX6 (GeneID 58533) | 3 | -0.356 | 74.8 | 0.0431 | 82.7
BPIFA1 (GeneID 51297) | 1 | -0.407 | 73.8 | 0.198 | 78.3
BPIFA1 (GeneID 51297) | 2 | -0.106 | 79.8 | 0.601 | 76.1
BPIFA1 (GeneID 51297) | 3 | 0.179 | 85.4 | 0.425 | 85.4
ZNF200 (GeneID 7752) | 1 | 0.425 | 90.3 | 0.294 | 93.4
ZNF200 (GeneID 7752) | 2 | 1.42 | 110 | 3.08 | 54.7
ZNF200 (GeneID 7752) | 3 | -0.872 | 64.5 | 1.1 | 54
LINC02538 (GeneID 401286) | 1 | -0.212 | 77.7 | -0.105 | 89.2
LINC02538 (GeneID 401286) | 2 | 1.71 | 116 | 1.4 | 89.6
LINC02538 (GeneID 401286) | 3 | -2.46 | 33 | -1.69 | 57.6
SAMD7 (GeneID 344658) | 1 | -0.419 | 73.5 | -0.221 | 87.1
SAMD7 (GeneID 344658) | 2 | 1.18 | 105 | 0.597 | 101
SAMD7 (GeneID 344658) | 3 | -0.872 | 64.5 | -1.01 | 94
ACBD3 (GeneID 64746) | 1 | -0.0331 | 81.2 | -0.872 | 114
ACBD3 (GeneID 64746) | 2 | 1.03 | 102 | 0.341 | 105
ACBD3 (GeneID 64746) | 3 | 0.467 | 91.2 | 0.286 | 94.5
RHBDL2 (GeneID 54933) | 1 | 0.0874 | 83.6 | -0.0811 | 95.5
RHBDL2 (GeneID 54933) | 2 | -0.777 | 66.4 | -1.59 | 113
RHBDL2 (GeneID 54933) | 3 | 0.476 | 91.4 | 0.354 | 93
NELL2 (GeneID 4753) | 1 | -0.554 | 70.9 | -0.492 | 90.1
NELL2 (GeneID 4753) | 2 | 0.0242 | 82.4 | -0.0638 | 93.6
NELL2 (GeneID 4753) | 3 | -0.0932 | 80 | -0.0498 | 90.6
SETP20 (GeneID 389217) | 1 | 0.392 | 89.7 | 0.833 | 80.5
SETP20 (GeneID 389217) | 2 | -1.39 | 54.2 | -0.442 | 68.1
SETP20 (GeneID 389217) | 3 | -1.34 | 55.3 | -0.93 | 79

Entries listed so far whose gene name begins with O or o:
gene knocked down | reagent no. | total luciferase, z-score | total luciferase, % of control | luciferase per cell, z-score | viable cells, % of control
OR6T1 (GeneID 219874) | 1 | -0.414 | 73.6 | -0.973 | 106
OR6T1 (GeneID 219874) | 2 | -0.255 | 76.8 | -0.0684 | 87.4
OR6T1 (GeneID 219874) | 3 | -0.3 | 75.9 | -0.701 | 102
OR6K3 (GeneID 391114) | 1 | -0.0561 | 80.8 | 0.282 | 83.8
OR6K3 (GeneID 391114) | 2 | -1.08 | 60.4 | -0.829 | 84
OR6K3 (GeneID 391114) | 3 | -0.045 | 81 | 0.0936 | 88.3
